Here are results for one molecule from US20150344535A1, “NEUROTROPHIN-TYROSINE KINASE RECEPTOR SIGNALING” (THE UNIVERSITY OF QUEENSLAND, priority 2012, published 2015).

By UniProt entry, the sequences of proteins in these tests, tags left out. Where a name states a change or a piece, a line headed by the entry shows the natural chain unless it says otherwise. Chains listed by the source or under a name are the forms on record and can include a tag or linker.
TrkB endogenously expressed in the motor neuron-like cell line NSC-34 (P15209, form named): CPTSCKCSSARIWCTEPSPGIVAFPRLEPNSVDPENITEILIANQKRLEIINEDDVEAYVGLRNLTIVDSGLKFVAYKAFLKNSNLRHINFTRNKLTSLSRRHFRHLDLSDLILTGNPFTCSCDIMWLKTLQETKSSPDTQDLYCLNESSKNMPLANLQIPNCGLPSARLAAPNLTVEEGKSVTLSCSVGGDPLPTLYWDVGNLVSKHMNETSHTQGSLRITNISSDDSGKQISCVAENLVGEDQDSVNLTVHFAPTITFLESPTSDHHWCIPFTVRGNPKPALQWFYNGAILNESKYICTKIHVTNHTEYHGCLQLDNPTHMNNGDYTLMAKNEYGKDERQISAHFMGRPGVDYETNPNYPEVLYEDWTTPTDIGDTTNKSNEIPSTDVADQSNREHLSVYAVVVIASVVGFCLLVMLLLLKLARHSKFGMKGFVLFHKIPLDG

Results are given in words; binding and its absence hold for the method and conditions named. In cells and extracts the contact can be indirect. Some results given as binding are weak or reduced against the parent protein; the word gives no strength.

In assay [1] the target is TrkB endogenously expressed in the motor neuron-like cell line NSC-34 (UniProt P15209). As to the kind of experiment: pull-down with biotinylated peptide, Western blot.
Assay [2] has the same target. As to the kind of experiment: pull-down with biotinylated peptide from NSC-34 lysate, Western blot. On the technique in general: In western blotting, separated proteins are transferred to a membrane and probed.

B1: biotinylated c29 peptide (peptide)
peptide: KRWNSCKQNKQGANSRPVNQTPPPEGEKL
modifications: amino terminus labelled with biotin via a six-carbon spacer
On to B1, for which the binding result in assay [1] and in assay [2] was “binds” throughout.
